The text below walks through data of article PMC8102522.

The chains behind the UniProt entries cited, without tags or fusion partners. Residues count along the entry.
UniProt O00206, residues 24-839: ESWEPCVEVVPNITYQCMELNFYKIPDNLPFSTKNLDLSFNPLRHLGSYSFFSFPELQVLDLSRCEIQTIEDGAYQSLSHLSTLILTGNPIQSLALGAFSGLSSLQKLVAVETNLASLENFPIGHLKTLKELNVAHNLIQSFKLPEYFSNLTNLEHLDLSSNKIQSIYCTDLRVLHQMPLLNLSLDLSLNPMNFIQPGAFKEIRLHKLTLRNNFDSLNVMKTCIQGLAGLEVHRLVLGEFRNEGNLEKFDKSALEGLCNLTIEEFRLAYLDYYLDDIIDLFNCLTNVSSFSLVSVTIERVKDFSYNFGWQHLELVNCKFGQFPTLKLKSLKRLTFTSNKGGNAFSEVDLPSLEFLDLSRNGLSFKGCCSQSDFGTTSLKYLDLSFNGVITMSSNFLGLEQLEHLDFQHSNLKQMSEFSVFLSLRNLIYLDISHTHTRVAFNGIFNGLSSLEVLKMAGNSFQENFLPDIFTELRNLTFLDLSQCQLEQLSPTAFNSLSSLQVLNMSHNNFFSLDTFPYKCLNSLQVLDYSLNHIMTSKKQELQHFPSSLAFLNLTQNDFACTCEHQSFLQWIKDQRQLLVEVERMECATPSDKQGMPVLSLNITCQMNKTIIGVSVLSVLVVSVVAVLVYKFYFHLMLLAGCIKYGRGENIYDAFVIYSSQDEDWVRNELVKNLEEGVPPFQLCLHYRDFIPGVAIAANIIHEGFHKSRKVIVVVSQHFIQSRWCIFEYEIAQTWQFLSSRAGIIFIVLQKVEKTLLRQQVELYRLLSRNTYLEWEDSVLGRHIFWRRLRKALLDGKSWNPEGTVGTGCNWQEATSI
UniProt Q99836: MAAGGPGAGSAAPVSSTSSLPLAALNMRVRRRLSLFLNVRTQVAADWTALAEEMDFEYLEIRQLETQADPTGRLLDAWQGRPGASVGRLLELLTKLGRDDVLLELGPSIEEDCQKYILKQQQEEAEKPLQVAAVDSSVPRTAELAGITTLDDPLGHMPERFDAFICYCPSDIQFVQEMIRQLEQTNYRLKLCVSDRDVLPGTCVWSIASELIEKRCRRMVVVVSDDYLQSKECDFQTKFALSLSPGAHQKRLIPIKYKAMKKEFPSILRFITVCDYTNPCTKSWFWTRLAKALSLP

Results are given in words; binding and its absence hold for the method and conditions named. Binding seen in cells or lysates may run through a third protein. Some entries that bind do so weakly or less than the wild type.

In assay [1] the target is Toll-like receptor 4 (human (endogenous in MIO-M1)) (UniProt O00206). Kind of assay: co-IP; MIO-M1 cells exposed to HOG-LDL for 15 min; extracts incubated with TLR4 antibody overnight at 4 °C, protein G-Sepharose beads 2 h at 4 °C, immunoblot of coprecipitated proteins; also after siMD2 or negative control siRNA (Fig. 4b, 4c, 4h).
Assay [2] concerns the target T1, myeloid differentiation protein 2 (human (endogenous in MIO-M1)) (UniProt Q9Y6Y9).
T1 sequence: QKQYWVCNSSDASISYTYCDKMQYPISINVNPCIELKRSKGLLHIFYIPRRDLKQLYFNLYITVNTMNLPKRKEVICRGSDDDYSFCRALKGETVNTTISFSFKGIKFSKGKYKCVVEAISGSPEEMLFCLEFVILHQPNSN
Kind of assay: co-IP; MIO-M1 cells exposed to HOG-LDL for 15 min; extracts incubated with MD2 antibody overnight at 4 °C, protein G-Sepharose beads 2 h at 4 °C, immunoblot of coprecipitated proteins; also after siNOX4 or negative control siRNA and with or without apocynin (Fig. 4a, 5b). For orientation: Immunoblotting shows a protein as a band on a membrane.

Consider “myeloid differentiation primary response gene 88 (from UniProt Q99836 1-296)”, for which the binding result in assay [1] is “binds”. For the molecule “Toll-like receptor 4 (from UniProt O00206 24-839)”, the binding result in assay [2] is reported as “binds”.

B1: myeloid differentiation protein 2 (protein, UniProt Q9Y6Y9 19-160)
chain: T1 sequence
For B1, the binding result in assay [1] is “binds”.

B2: NADPH oxidase-4 (enzyme, UniProt Q9NPH5 1-578)
chain: MAVSWRSWLANEGVKHLCLFIWLSMNVLLFWKTFLLYNQGPEYHYLHQMLGLGLCLSRASASVLNLNCSLILLPMCRTLLAYLRGSQKVPSRRTRRLLDKSRTFHITCGVTICIFSGVHVAAHLVNALNFSVNYSEDFVELNAARYRDEDPRKLLFTTVPGLTGVCMVVVLFLMITASTYAIRVSNYDIFWYTHNLFFVFYMLLTLHVSGGLLKYQTNLDTHPPGCISLNRTSSQNISLPEYFSEHFHEPFPEGFSKPAEFTQHKFVKICMEEPRFQANFPQTWLWISGPLCLYCAERLYRYIRSNKPVTIISVMSHPSDVMEIRMVKENFKARPGQYITLHCPSVSALENHPFTLTMCPTETKATFGVHLKIVGDWTERFRDLLLPPSSQDSEILPFIQSRNYPKLYIDGPFGSPFEESLNYEVSLCVAGGIGVTPFASILNTLLDDWKPYKLRRLYFIWVCRDIQSFRWFADLLCMLHNKFWQENRPDYVNIQLYLSQTDGIQKIIGEKYHALNSRLFIGRPRWKLLFDEIAKYNRGKTVGVFCCGPNSLSKTLHKLSNQNNSYGTRFEYNKESFS
For B2, the binding result in assay [2] and in assay [1] was “binds” throughout.
